In patent EP0870499A1, “Oral use of (+)-0-Demethyltramadol as analgesic” (Grünenthal GmbH, priority 1997, dated 1998):
Read-outs that look alike come from different tables or passages of the source.

What was measured:
männliche NMRI-Mäuse [1] = conditions: mouse, in vivo
männliche NMRI-Mäuse [2] = conditions: mouse, in vivo; remark: listed apart in the source
männliche NMRI-Mäuse [3] = assay: Tail-flick test (radiant heat) in the mouse
männliche NMRI-Mäuse [4] = assay: Phenylquinone-induced writhing test in the mouse

What does the source list for CN1CC[C@]23c4c5ccc(O)c4O[C@H]2[C@@H](O)C=C[C@H]3[C@H]1C5 [Morphin, reference compound]?
orale Wirkverfügbarkeit (männliche NMRI-Mäuse [1]): 0,06; orale Wirkverfügbarkeit (männliche NMRI-Mäuse [2]): 0,07; ED50 (männliche NMRI-Mäuse [3]; iv, 20 min, read-out: ED50-Werte Tail-flick, Maus i.v.): 1.05 mg/kg; ED50 (männliche NMRI-Mäuse [3]; po, 0.5 h, read-out: ED50-Werte Tail-flick, Maus p.o.): 18.9 mg/kg; ED50 (männliche NMRI-Mäuse [4]; 10 min, read-out: ED50-Werte Writhing, Maus i.v.): 0.33 mg/kg; ED50 (männliche NMRI-Mäuse [4]; 0.5 h, read-out: ED50-Werte Writhing, Maus p.o.): 4.7 mg/kg
